# Measurements reported in PubChem BioAssay AID1259308 (NCATS, 2017)
# Screen: 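Knock-downs that increase output of a recombinant reporter protein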 (primary screen)
# Cell system: human HEK293 embryonic kidney cells stably expressing firefly luciferase (HEK-CMV-Luc2-Hygro)
# Reagents: single siRNA against human genes, 0.8 pmol siRNA per well
# Duration: 72 h
# Read-out: 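Reporter luminescence and viable-cell signal on separate replicate plates, given as percent of non-targeting control and median/MAD z-scores, plus per-cell luciferase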
# Direction: total luciferase, z-score and total luciferase, % of control: higher = more reporter protein produced; luciferase per cell, z-score: higher = more reporter output per viable cell; viable cells, % of control: higher = more viable cells
# Active means: 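An siRNA counts as active if its total luciferase robust z-score exceeds 3; genes with two or more such siRNAs out of three were retested with fresh siRNAs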
# Meaning of the calls: active = raised luciferase; inactive = no rise
# Shown is an unselected part of about 59,000 deposited reagents. About 1,510 of them (2.6%) were called active. 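Calls use total luciferase alone and ignore viability, so some active siRNAs may act by altering cell number.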 The numbers tell different reagents against one gene apart. Reagent sequences are not shown.
gene,siRNA no.,"total luciferase, z-score","total luciferase, % of control","luciferase per cell, z-score","viable cells, % of control",activity call
POLH,1,0.352,88.9,0.846,79.5,inactive
POLH,2,-0.29,76.1,-0.924,108,inactive
POLH,3,-0.115,79.6,-0.668,106,inactive
AP2B1,1,0.0168,82.2,-0.526,106,inactive
AP2B1,2,1.2,106,1.61,77.4,inactive
AP2B1,3,0.868,99.1,0.542,96.1,inactive
CLPSL2,1,-0.0365,81.2,0.766,74.1,inactive
CLPSL2,2,-1.03,61.4,-0.367,75.6,inactive
CLPSL2,3,-0.725,67.5,-0.784,92.7,inactive
EHF,1,-0.364,74.6,-0.868,105,inactive
EHF,2,-0.885,64.3,-0.917,91.5,inactive
EHF,3,-1.36,54.7,-1.92,101,inactive
LSMEM2,1,-0.346,75,-0.704,101,inactive
LSMEM2,2,-0.00601,81.8,0.389,82.5,inactive
LSMEM2,3,-0.185,78.2,-0.0657,88.9,inactive
GAL3ST1,1,0.495,91.7,2.1,59,inactive
GAL3ST1,2,-0.505,71.8,-0.0355,81,inactive
GAL3ST1,3,1.15,105,0.657,98.5,inactive
CASQ1,1,0.85,98.8,1.38,76.8,inactive
CASQ1,2,-0.617,69.6,-0.462,87.9,inactive
CASQ1,3,0.442,90.7,0.24,95.1,inactive
GTF2I,1,-0.628,69.4,-0.424,86.7,inactive
GTF2I,2,0.21,86.1,-0.244,103,inactive
GTF2I,3,2.15,125,1.54,92.8,inactive
GTF2I,4,1.71,116,1.32,91.6,inactive
GTF2I,5,0.53,92.4,0.0586,102,inactive
GTF2I,6,1.06,103,1.07,86.8,inactive
TUBGCP6,1,2.29,127,1.62,93,inactive
TUBGCP6,2,0.562,93.1,-0.272,112,inactive
TUBGCP6,3,-0.294,76,-0.0384,85.8,inactive
PSMD5,1,0.539,92.6,0.291,95.8,inactive
PSMD5,2,1.1,104,0.684,96.9,inactive
PSMD5,3,-0.175,78.4,-0.591,102,inactive

Continued; the last 3 above are carried over.
gene,siRNA no.,"total luciferase, z-score","total luciferase, % of control","luciferase per cell, z-score","viable cells, % of control",activity call
PSMD5,1,0.539,92.6,0.291,95.8,inactive
PSMD5,2,1.1,104,0.684,96.9,inactive
PSMD5,3,-0.175,78.4,-0.591,102,inactive
ASS1,1,1.52,112,0.932,98.1,inactive
ASS1,2,-1.22,57.6,-0.973,83.2,inactive
ASS1,3,0.865,99.1,0.874,88,inactive
INO80E,1,0.201,85.9,-0.214,102,inactive
INO80E,2,0.137,84.6,0.261,88.3,inactive
INO80E,3,-0.0356,81.2,0.0844,88.7,inactive
TMEM163,1,-0.353,74.9,-0.721,101,inactive
TMEM163,2,0.247,86.8,0.0807,95,inactive
TMEM163,3,1.07,103,1.46,78.4,inactive
ZKSCAN4,1,-0.09,80.1,0.514,78.2,inactive
ZKSCAN4,2,-0.404,73.8,-0.163,86.1,inactive
ZKSCAN4,3,0.0647,83.2,-0.204,98.1,inactive
EFNB1,1,-0.554,70.9,-0.256,84.7,inactive
EFNB1,2,0.277,87.4,0.172,93.3,inactive
EFNB1,3,-0.843,65.1,-0.0565,73.9,inactive
HIF3A,1,-1.75,47.1,-0.0259,53,inactive
HIF3A,2,0.317,88.2,0.514,86.1,inactive
HIF3A,3,0.969,101,1.68,72.7,inactive
H2AZ2,1,2.62,134,2.45,78.5,inactive
H2AZ2,2,0.714,96.1,0.401,96.6,inactive
H2AZ2,3,1.48,111,0.653,105,inactive
SLC22A1,1,0.771,97.2,0.401,97.7,inactive
SLC22A1,2,1.24,106,0.407,107,inactive
SLC22A1,3,0.784,97.5,1.43,74.8,inactive
